Source: publication PMC6235892
No constants are given. Whether binding was seen depends on the method and setting. Binding seen in cells or lysates may run through a third protein. Some binding calls cover weakened binding; strength is not graded here. Blank lines part the entries; values can stand above or below the molecule they belong to.

By UniProt entry, the sequences of proteins in these tests, tags left out.
UniProt P10415: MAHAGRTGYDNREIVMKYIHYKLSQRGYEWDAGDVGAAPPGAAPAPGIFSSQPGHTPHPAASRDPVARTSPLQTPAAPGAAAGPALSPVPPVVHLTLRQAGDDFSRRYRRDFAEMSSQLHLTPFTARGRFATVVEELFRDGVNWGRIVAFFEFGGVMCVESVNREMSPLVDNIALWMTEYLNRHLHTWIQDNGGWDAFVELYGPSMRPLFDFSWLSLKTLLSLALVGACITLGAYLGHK
UniProt Q15388: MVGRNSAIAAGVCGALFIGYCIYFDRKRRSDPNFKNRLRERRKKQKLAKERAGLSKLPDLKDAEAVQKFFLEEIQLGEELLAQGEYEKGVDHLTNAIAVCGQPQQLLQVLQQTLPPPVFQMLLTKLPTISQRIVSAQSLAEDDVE
UniProt Q3V3Q7: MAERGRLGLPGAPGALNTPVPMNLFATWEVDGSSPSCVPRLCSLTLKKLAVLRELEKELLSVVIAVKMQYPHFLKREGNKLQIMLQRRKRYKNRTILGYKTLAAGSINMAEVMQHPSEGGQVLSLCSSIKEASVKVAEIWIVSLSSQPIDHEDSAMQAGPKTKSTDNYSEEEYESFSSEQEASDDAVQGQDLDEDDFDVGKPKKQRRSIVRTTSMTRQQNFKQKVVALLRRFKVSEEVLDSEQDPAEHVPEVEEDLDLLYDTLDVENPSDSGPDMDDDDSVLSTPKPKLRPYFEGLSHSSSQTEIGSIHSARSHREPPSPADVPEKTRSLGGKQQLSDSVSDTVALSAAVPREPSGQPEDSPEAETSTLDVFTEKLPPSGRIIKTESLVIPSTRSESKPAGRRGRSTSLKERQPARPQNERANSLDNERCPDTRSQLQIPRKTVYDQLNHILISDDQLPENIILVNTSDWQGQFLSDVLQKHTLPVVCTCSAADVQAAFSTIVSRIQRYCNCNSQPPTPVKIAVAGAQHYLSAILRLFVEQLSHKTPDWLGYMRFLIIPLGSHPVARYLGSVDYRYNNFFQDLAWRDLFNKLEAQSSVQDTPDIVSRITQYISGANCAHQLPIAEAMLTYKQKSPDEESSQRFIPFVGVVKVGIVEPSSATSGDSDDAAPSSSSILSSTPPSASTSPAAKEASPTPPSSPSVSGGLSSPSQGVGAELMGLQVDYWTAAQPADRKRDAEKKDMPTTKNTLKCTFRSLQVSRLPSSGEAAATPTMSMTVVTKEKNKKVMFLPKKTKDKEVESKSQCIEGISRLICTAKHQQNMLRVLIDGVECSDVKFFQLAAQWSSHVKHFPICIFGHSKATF
UniProt P04150: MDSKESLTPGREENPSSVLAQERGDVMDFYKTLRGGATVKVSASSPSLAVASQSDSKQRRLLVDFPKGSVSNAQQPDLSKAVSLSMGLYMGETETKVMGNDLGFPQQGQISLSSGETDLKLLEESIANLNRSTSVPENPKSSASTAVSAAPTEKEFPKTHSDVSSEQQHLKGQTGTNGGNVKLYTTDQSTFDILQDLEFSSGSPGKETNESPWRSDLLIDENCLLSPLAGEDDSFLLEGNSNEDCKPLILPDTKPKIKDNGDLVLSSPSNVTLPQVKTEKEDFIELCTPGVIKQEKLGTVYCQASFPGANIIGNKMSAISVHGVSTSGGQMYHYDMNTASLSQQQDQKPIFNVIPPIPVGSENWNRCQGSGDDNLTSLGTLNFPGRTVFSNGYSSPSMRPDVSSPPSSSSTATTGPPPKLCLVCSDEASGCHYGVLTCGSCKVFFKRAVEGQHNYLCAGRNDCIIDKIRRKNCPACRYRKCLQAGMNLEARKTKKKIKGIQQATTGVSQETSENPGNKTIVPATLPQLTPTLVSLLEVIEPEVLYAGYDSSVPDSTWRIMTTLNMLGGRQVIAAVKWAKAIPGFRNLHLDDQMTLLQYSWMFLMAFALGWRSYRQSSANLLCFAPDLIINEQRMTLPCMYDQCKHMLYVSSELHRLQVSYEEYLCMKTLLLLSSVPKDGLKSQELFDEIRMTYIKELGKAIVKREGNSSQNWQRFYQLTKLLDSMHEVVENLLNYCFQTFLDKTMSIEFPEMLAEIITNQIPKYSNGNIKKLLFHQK

What was measured:
[1] = biological target: Bcl-2 (human (endogenous in SH-SY5Y)) (UniProt P10415); test: co-IP; total lysates of SH-SY5Y cells (300 ug) with 10 ug primary antibody on magnetic beads, overnight at 4 °C; endogenous proteins; cells treated with or without cortisol (1 uM), in some panels bcl-2 siRNA before
[2] = biological target: TOMM20 (human (endogenous in SH-SY5Y)) (UniProt Q15388); test: as above
[3] = biological target: phosphofurin acidic cluster sorting protein 2 (PACS2), mouse (mouse (endogenous in hippocampus)) (UniProt Q3V3Q7); test: co-IP; lysed hippocampus of male ICR mice exposed to vehicle or corticosterone (10 mg/kg), in one panel rapamycin (8 mg/kg) before; endogenous proteins

binding [1]: binds
Molecule: TOMM20 (from UniProt Q15388 1-145)

binding [2]: binds
binding [1]: binds
Molecule: glucocorticoid receptor (GR) (from UniProt P04150 1-777)

binding [3]: binds
B1: mfn2, mouse (protein, UniProt Q80U63 1-757)
chain: MSLLFSRCNSIVTVKKDKRHMAEVNASPLKHFVTAKKKINGIFEQLGAYIQESASFLEDTHRNTELDPVTTEEQVLDVKGYLSKVRGISEVLARRHMKVAFFGRTSNGKSTVINAMLWDKVLPSGIGHTTNCFLRVGGTDGHEAFLLTEGSEEKKSVKTVNQLAHALHQDEQLHAGSMVSVMWPNSKCPLLKDDLVLMDSPGIDVTTELDSWIDKFCLDADVFVLVANSESTLMQTEKQFFHKVSERLSRPNIFILNNRWDASASEPEYMEEVRRQHMERCTSFLVDELGVVDRAQAGDRIFFVSAKEVLSARVQKAQGMPEGGGALAEGFQVRMFEFQNFERQFEECISQSAVKTKFEQHTVRAKQIAEAVRLIMDSLHIAAQEQRVYCLEMREERQDRLRFIDKQLELLAQDYKLRIKQITEEVERQVSTAMAEEIRRLSVLVDEYQMDFHPSPVVLKVYKNELHRHIEEGLGRNLSDRCSTAIASSLQTMQQDMIDGLKPLLPVSMRNQIDMLVPRQCFSLSYDLNCDKLCADFQEDIEFHFSLGWTMLVNRFLGPKNSRRALLGYSDQVQRPLPLTPANPSMPPLPQSSLTQEELMVSMVTGLASLTSRTSMGILVVGGVVWKAVGWRLIALSFGLYGLLYVYERLTWTTKAKERAFKRQFVEYASEKLQLIISYTGSNCSHQVQQELSGTFAHLCQQVDITRDNLEQEIAAMNKKVEALDSLQSRAKLLRNKAGWLDSELNMFTHQYLQPSR
